{"source": "PubChem BioAssay AID588497", "about": "(NMMLSC, 2011)", "note": "Out of some 360,000 compounds screened, about 780 (0.22%) were called active. Inconclusive results, whose numbers are uncertain, are shown with a selection of clear calls. Cut-off read from the data, not from the text of the source: active = inhibition above about 35% (passing the limit was not always enough); inconclusive = no clear call, values can overlap the other calls.", "data": [{"tested_on": "Botulinum neurotoxin type F light chain protease (Clostridium botulinum)", "test": "BoNT/F light chain protease inhibitors, primary screen, biochemical, flow cytometry, MLPCN library (AID 588497); note: plate controls were buffer without enzyme for full effect and enzyme alone for no effect", "settings": "Multiplex microsphere protease cleavage assay, at 10 µM, hits give high values", "values": [{"smiles": "N#CC1(NC(=O)CN2C(=O)c3ccccc3C2=O)CCCCC1", "inhibition": "inconclusive: -4.2%"}, {"smiles": "CC(=O)C1=C(O)C(=O)N(c2ccc(Br)cc2)C1c1cccc(F)c1", "note": "(centres undefined)", "inhibition": "inconclusive: -8.9%"}, {"smiles": "CCOP(=O)(OCC)Oc1cc(C)c(N(C)C)c(C)c1", "inhibition": "inconclusive: 4.3%"}, {"smiles": "Cc1cccc(OCC(=O)N(Cc2ccc(N(C)C)cc2)C2CCS(=O)(=O)C2)c1", "note": "(centres undefined)", "inhibition": "inconclusive: -14.4%"}, {"smiles": "COc1cc2cc(CCO)oc(=O)c2cc1OC", "inhibition": "inactive: 1.4%"}, {"smiles": "COc1ccc(C2(CNC(=O)/C=C/c3ccco3)CCCC2)cc1OC", "inhibition": "inactive: 2.7%"}, {"smiles": "Cc1ccc(C(=O)Cn2c(=N)n(N)c3ccccc32)cc1", "inhibition": "inconclusive: 17.7%"}, {"smiles": "Cc1nc(/N=C(\\N)NC(=O)NC2CCCCC2)nc2ccccc12", "inhibition": "inconclusive: 60.5%"}, {"smiles": "CC1CN=C(Nc2ccc(F)c(Cl)c2)S1", "note": "(centres undefined)", "inhibition": "inconclusive: -8.8%"}, {"smiles": "O=C(COc1ccc([N+](=O)[O-])cc1)N/N=C/c1ccccn1", "inhibition": "inconclusive: -77.5%"}, {"smiles": "COc1ccc(OC)c(C(=O)c2ccccn2)c1", "inhibition": "inconclusive: 0.3%"}, {"smiles": "Cc1cccc(C)c1NC(=O)CC1SC2=NCCN2C1=O", "note": "(centres undefined)", "inhibition": "inconclusive: -27.4%"}, {"smiles": "O=C(Oc1cccnc1)c1ccco1", "inhibition": "inactive: -21.5%"}, {"smiles": "O=C(O)CCc1ccc(-c2cccs2)n1CCC(=O)O", "inhibition": "inconclusive: 39.5%"}, {"smiles": "CN(C)c1ccc(P(=O)(OCc2ccccc2)C(O)c2cccnc2)cc1", "note": "(centres undefined)", "inhibition": "inactive: 1.4%"}, {"smiles": "CN1C(=O)c2ccc(Oc3ccccc3)cc2C1=O", "inhibition": "inconclusive: 32%"}, {"smiles": "CCN(CC)C(=O)c1ccc(NS(=O)(=O)c2ccc3[nH]c(=O)[nH]c3c2)cc1", "inhibition": "inactive: 0.1%"}, {"smiles": "CCN(C[C@H]1N[C@@](Cc2ccccc2)(C(=O)OC)[C@H]2C(=O)N(C)C(=O)[C@@H]12)C(C)=O", "inhibition": "inactive: -6.1%"}, {"smiles": "CCN(CC)c1ccc(/C=N/Nc2ccccc2)c(O)c1", "inhibition": "inactive: -0.2%"}, {"smiles": "C=CCOc1c(Br)cc(CNc2ccc(NC(=O)C(C)C)c(OC)c2)cc1OC", "inhibition": "inactive: 4.8%"}, {"smiles": "COc1ccc(/C=C2\\N=C(c3ccc(C)cc3)OC2=O)cc1", "inhibition": "inconclusive: -9.3%"}, {"smiles": "Cc1ccc(C(CC(=O)NCCCN(C)C)c2ccc(OC(C)C)cc2)cc1", "note": "(centres undefined)", "inhibition": "inconclusive: 5.5%"}, {"smiles": "COC(=O)Cn1cc(C(=O)C(F)(F)F)c2ccccc21", "inhibition": "inactive: -1.1%"}, {"smiles": "COc1cc(/C=C(\\NC(C)=O)C(=O)N2CCCCC2)ccc1OC(C)=O", "inhibition": "inconclusive: 10%"}, {"smiles": "Cc1cccc(Oc2cnn(C(C)(C)C)c(=O)c2Cl)c1", "inhibition": "inactive: -12.9%"}, {"smiles": "COc1ccc(-c2cc3c(c4c2ccn4C)C2CCC3C2)cc1", "note": "(centres undefined)", "inhibition": "inactive: -22.5%"}, {"smiles": "NS(=O)(=O)c1ccc(CCNC(=S)NC(=O)c2ccccc2Br)cc1", "inhibition": "inactive: -6.9%"}, {"smiles": "CC(NC(=O)C(c1ccccc1)c1ccccc1)c1ccccc1", "note": "(centres undefined)", "inhibition": "inconclusive: -28.1%"}, {"smiles": "O=C(NCCc1c[nH]c2ccccc12)/C(=C\\c1cccnc1)NC(=O)c1ccccc1Br", "inhibition": "inconclusive: -71.2%"}, {"smiles": "O=C(CCCCC(=O)N1CCOCCOCCOCC1)OCc1ccccc1", "inhibition": "inconclusive: -7.4%"}, {"smiles": "c1cc(N2CCCC2)ccc1C(c1nnnn1C1CCCCC1)N1CCOCC1", "note": "(centres undefined)", "inhibition": "inconclusive: -84.8%"}, {"smiles": "Cc1cccc(NC(=O)CN(C)S(=O)(=O)c2ccc(-c3ccc(=O)[nH]n3)s2)c1C", "inhibition": "inactive: 0.5%"}, {"smiles": "O=C(O)C1C2CCC(O2)C1C(=O)Nc1cccc(Cl)c1", "note": "(centres undefined)", "inhibition": "inconclusive: -28.6%"}, {"smiles": "Cc1nc2c(OCCN3C(=O)c4ccccc4C3=O)cccn2c1N(C)C(=O)CCC1CCCC1", "inhibition": "inactive: 1%"}, {"smiles": "CCCCCc1cc(=O)[nH]c(=S)[nH]1", "inhibition": "inconclusive: -13%"}, {"smiles": "COc1ccc(S(=O)(=O)N/N=C(/C)c2ccc(C)o2)cc1", "inhibition": "inconclusive: 34.8%"}, {"smiles": "O=C(Cc1ccc([N+](=O)[O-])cc1)N/N=C/c1ccccc1F", "inhibition": "inactive: -0.1%"}, {"smiles": "CC(C)(C)C(=O)N1CCN(CCN2C(=O)c3cccc4cccc(c34)C2=O)CC1", "inhibition": "inconclusive: -2.1%"}, {"smiles": "COc1ccccc1Nc1nc(N)nc(CN2CCc3ccccc3C2)n1", "inhibition": "inconclusive: 18.9%"}, {"smiles": "COc1ccc(C(c2c(NC(=O)c3ccco3)sc(C)c2C)N2CCOCC2)cc1OC", "note": "(centres undefined)", "inhibition": "inconclusive: -4%"}, {"smiles": "Cc1cc(S(=O)(=O)N2CCOCC2)ccc1OCC(=O)NCCCn1ccnc1", "inhibition": "inactive: -23.2%"}, {"smiles": "CCS(=O)(=O)c1nc(S(=O)(=O)c2ccc(C)cc2)c(NCCCN2CCCC2=O)s1", "inhibition": "inactive: 0.1%"}, {"smiles": "COc1ccc(C)cc1NC(=O)NC1CCN(Cc2ccccc2)CC1", "inhibition": "inactive: -4.1%"}, {"smiles": "O=C(NCc1nnc2c(C(F)(F)F)cc(Cl)cn12)c1cccnc1", "inhibition": "inactive: -3%"}, {"smiles": "Cc1cnn(C(=O)Cn2nc(C(F)F)c(Br)c2C)c1", "inhibition": "inactive: 6.7%"}, {"smiles": "COc1ccc(Oc2ncccc2NC(=O)c2cccc(C)c2C)cc1", "inhibition": "inconclusive: -50.4%"}, {"smiles": "CC(C)CNC(=O)CSc1n[nH]c(=O)n1CCc1ccccc1", "inhibition": "inactive: 8.6%"}, {"smiles": "O=C(CCc1ccccc1)NNC(=O)c1ccccc1Cl", "inhibition": "inconclusive: -11.6%"}, {"smiles": "COc1ccc(C(CNC(=O)c2ccc(OC)c(S(=O)(=O)N3CCCC3)c2)N2CCCC2)cc1", "note": "(centres undefined)", "inhibition": "active: 40.3%"}, {"smiles": "Cc1cccc2c1cnn2C(=O)Nc1ccccc1Br", "inhibition": "inconclusive: -25.2%"}, {"smiles": "Cc1cc(Cl)ccc1NC(=O)NC1CCN(S(=O)(=O)c2ccc(F)cc2)CC1", "inhibition": "inconclusive: -18.1%"}, {"smiles": "CCOC(=O)c1ccccc1NC(=O)CN(c1ccccc1C)S(C)(=O)=O", "inhibition": "inconclusive: -96.2%"}, {"smiles": "Cc1ccc2c(c1)CCCN2CC(=O)Nc1cccc(S(=O)(=O)N2CCCC2)c1", "inhibition": "inconclusive: -49.7%"}, {"smiles": "CC1=C(C(=O)N2CCOCC2)C(c2cccs2)NC(=O)N1", "note": "(centres undefined)", "inhibition": "inconclusive: -20.8%"}, {"smiles": "CCc1ccc(Nc2nc3ccccc3c(=O)s2)cc1", "inhibition": "active: 75.7%"}, {"smiles": "Cc1ccc(C)c(/C=N/n2cc(-c3ccccc3)[nH]c2=S)c1", "inhibition": "inactive: 1%"}, {"smiles": "COc1cccc(NC(=O)CN(C)CC(=O)Nc2ccc(C)c([N+](=O)[O-])c2)c1", "inhibition": "inconclusive: 6.3%"}, {"smiles": "COc1cccc(N=Nc2ccc(O)c3ncccc23)c1", "inhibition": "inactive: -5.9%"}, {"smiles": "O=C(CN1C(=O)c2ccc(Br)cc2C1=O)NCC1CCCO1", "note": "(centres undefined)", "inhibition": "inactive: -5.3%"}]}]}
